From patent US20100168175A1, “ATPENINS” (priority 2008, published 2010)
Some of these results come from one statement about several compounds together.

Tested on: Fusarium graminearum
Type: in vivo
Conditions: young barley plants, curative spray 24 hours after inoculation, active compound concentration 1000 ppm, evaluation 5 days after inoculation

Structure (SMILES): COc1[nH]c(=O)c(C(=O)C(C)c2ccc(Cl)cc2)c(O)c1OC (centres unmarked) [Compound I-204]
- efficacy: ≥ 70%

Structure (SMILES): COc1[nH]c(=O)c(C(=O)C(C)CC(F)(F)F)c(O)c1OC (centres unmarked) [Compound I-197]
- efficacy: ≥ 70%
